# According to PubChem BioAssay AID2685 (National Center for Advancing Translational Sciences (NCATS), 2010):
# The other results are listed elsewhere or left out. These are further read-outs of the screen, such as a control signal, another cell line or another target. No call is given for them. Most of these compounds were active or inconclusive in the main read-out, so they are no random draw. Words in brackets tell the shape of the fitted curve; partial curves, single points and poor fits give uncertain potencies.
# Test: qHTS Assay for Lipid Storage Modulators in Drosophila S3 Cells;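 as to cell number change: cells counted by Cell Tracker Red CMTPX staining in the red channel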
# Settings: BODIPY lipid droplet fluorescence, 18-24 h; for cell number change: measured here: cell count max response, cells fed with added oleic acid
# Procedure, shortened: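 Drosophila S3 cells loaded with oleic acid (400 uM, as added) and compounds at several concentrations; lipid droplets imaged by 488-nm laser-scanning cytometry, 500–530 nm intensity and object ratio to cell channel. Percent activity normalized to 20 uM Triacsin C.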
# [1] = measured here: lipid fluorescence (Fed channel) AC50, cells fed with added oleic acid
# [2] = measured here: cell number channel AC50, cells fed with added oleic acid
Compound,cell number change [%],AC50 [1],AC50 [2]
COc1ccc2cc(CO)n(C)c2c1,-20.3,"29.1 µM [rising, single point]",
CCOC(=O)c1nnn(-c2nonc2N)c1CN(CC)c1ccccc1,,"0.651 µM [falling, single point]",
CN1CCN(C2=C(Cl)C(=O)N(CCc3ccccc3)C2=O)CC1,-41,"14.6 µM [falling, partial curve]","10.3 µM [falling, partial curve]"
CCN(C(=O)CSc1nnc(Cn2nnc3ccccc32)o1)c1nc(-c2ccccc2)cs1,-16.5,,
O=C(N/C=C/c1ccccc1)Nc1ccc(Cl)cc1,-43.1,,"14.6 µM [falling, single point]"
Cc1ccc(CNCCCSc2nc(C)cc(C)n2)cc1,-54.8,"2.59 µM [falling, partial curve]","4.61 µM [falling, full curve]"
CCOC(CNC(=O)c1ccc(N2CCc3ccccc32)c([N+](=O)[O-])c1)OCC,-12.2,"29.1 µM [falling, single point]",
COc1cccc(C(=O)Nc2ccc(C(=O)c3ccccc3)cc2)c1,3.52,"29.1 µM [falling, single point]",
N#Cc1ccc(-c2ccc(OCC(=O)Nc3cccnc3)cc2)cc1,,"9.2 µM [falling, partial curve]",
CCCOc1ccc(C(=O)NC2CCSc3ccccc32)cc1 (centres undefined),154,,"29.1 µM [rising, single point]"
CCCCC(NC(=O)c1ccc(Cl)cc1)C(=O)O (centres undefined),-15.1,"29.1 µM [falling, single point]",
CCOC(=O)N1CCN(C(=O)c2ccc(OC(C)=O)cc2)CC1,-12.4,"20.6 µM [falling, single point]",
Cc1cccnc1NC(=O)c1ccc(Cl)c(S(=O)(=O)N2CCCCCC2)c1,,,"0.731 µM [falling, full curve, poor fit]"
CCC(CC)C(=O)Nc1nnc(SCC(=O)NC(C)(C)C)s1,-3.36,"29.1 µM [falling, partial curve, poor fit]",
Cn1cc(S(=O)(=O)N2CCN(c3cccc(Cl)c3)CC2)c(=O)n(C)c1=O,7.61,"6.51 µM [rising, partial curve, poor fit]",
Cc1cccn2c(=O)c3cc(C(=O)NC4CCCCC4)n(C)c3nc12,-3.77,,
COc1ccc(Cn2c(C)nc3oc4cc(OC)ccc4c(=O)c3c2=O)cc1,0.978,,
CN=C(Nc1cc(C)nn1-c1ccccc1)c1ccccc1F,46.9,"0.00517 µM [rising, full curve, poor fit]","0.00461 µM [rising, full curve, poor fit]"
COc1ccc(S(=O)(=O)N2CCC(C(=O)NC3CC3)CC2)cc1OC,22,"32.6 µM [rising, single point]",

# Copied from above for reference:
Compound,cell number change [%],AC50 [1],AC50 [2]
CCOC(=O)N1CCN(C(=O)c2ccc(OC(C)=O)cc2)CC1,-12.4,"20.6 µM [falling, single point]",
Cc1cccnc1NC(=O)c1ccc(Cl)c(S(=O)(=O)N2CCCCCC2)c1,,,"0.731 µM [falling, full curve, poor fit]"

# Remaining list, next part.

Compound,cell number change [%],AC50 [1],AC50 [2]
COc1cccc(CC(=O)Nc2nc(-c3ccc(F)c(F)c3)cs2)c1,23.5,"29.1 µM [rising, single point]",
COc1cccc(NC(=S)N2CCC(NC(=O)c3ccco3)CC2)c1,33.3,"0.116 µM [rising, single point]","11.6 µM [rising, partial curve, poor fit]"
N#Cc1c(Nc2ccc(Cl)cc2)s[nH]c1=O,,"0.116 µM [falling, full curve, poor fit]","0.461 µM [falling, full curve, poor fit]"
COc1ccc(N(CC(=O)NCc2ccco2)S(=O)(=O)c2ccc(C)cc2)cc1,-31.5,"8.2 µM [falling, partial curve]","5.8 µM [falling, partial curve]"
CC(C)C(=O)Nc1nnc(SCC(=O)NCC2CCCO2)s1 (centres undefined),32.9,"3.66 µM [falling, partial curve]","2.31 µM [falling, partial curve, poor fit]"
O=C(N/N=C/c1cc([N+](=O)[O-])ccc1O)c1cccc(NC(=O)c2cccc(Cl)c2)c1,-1.28,"2.59 µM [falling, full curve, poor fit]",
CCC(=O)Nc1ccc(C(=O)NNC(=O)c2cccs2)cc1,20.1,"29.1 µM [rising, single point]",
Cc1cccc2cc(CN(CC3CCCO3)C(=S)NCc3ccco3)c(=O)[nH]c12 (centres undefined),76.1,,"20.6 µM [rising, single point]"
O=C(CCc1ccccc1)NCc1ccccc1,-20,"8.2 µM [falling, partial curve, poor fit]",
Cc1cc(NC(=O)CSc2nnc(-c3cccnc3)n2Cc2ccccc2)no1,,"2.06 µM [rising, single point]",
N#C/C(=C\c1coc2ccccc2c1=O)C(N)=S,-19.6,,
Cn1c(SCC(=O)Nc2nnc(-c3ccccc3)o2)nnc1C1CC1,-0.578,,
COC(=O)c1ccccc1NC(=O)C1CCCCC1C(=O)O (centres undefined),,,"6.51 µM [rising, single point]"
COc1ccc(C(=O)NCCSCc2cccc(Cl)c2)cc1OC,11.9,"29.1 µM [falling, single point]","0.231 µM [rising, full curve, poor fit]"
CN1/C(=C\C=C2\N=C(c3ccc(F)cc3)OC2=O)C(C)(C)c2ccccc21,,"6.51 µM [rising, single point]","6.51 µM [rising, single point]"
O=C(NCC(=O)N1CCN(C(c2ccccc2)c2ccccc2)CC1)c1ccccc1F,48.7,,"29.1 µM [rising, single point]"
Cc1onc(-c2c(Cl)cccc2Cl)c1C(=O)NC1CCCCC1,-6.41,"0.116 µM [rising, partial curve, poor fit]",
O=C1CCC(C(=O)Nc2ccccc2N2CCCC2)=NN1,24.8,"29.1 µM [rising, single point]",
Cc1nn(-c2ccccc2)c(N2CCCC2)c1C=O,64.4,"29.1 µM [rising, single point]","29.1 µM [rising, single point]"
